Where no end group is shown, it is not given here. [ ]: non-standard residue; d: D form. The star is where a group is joined. DOTA = O=C(O)CN1CCN(CC(=O)O)CCN(CC(=O)*)CCN(CC(=O)O)CC1 Some results are limits rather than exact numbers.

We go through 4 substances from article PMC9953004 (Biomedicines, 2023).

Data set [1] in a line: peptide made by a vendor (peptide synthesis; preloaded Fmoc-Arg(Pbf)-Wang resin; DIC/HOBt; active ester method for DOTA-tris(tBu)-NHS). The conditions noted are these: whole synthesis, trifluoroacetate salt.
A short description of data set [2]: general procedure: Fmoc solid-phase peptide synthesis; preloaded Fmoc-Arg(Pbf)-Wang resin; DIC/HOBt; active ester method for DOTA-tris(tBu)-NHS. The conditions noted are these: whole synthesis, trifluoroacetate salt (vendor conjugates).

For the substance K(DOTA)ATWLPPR, the “final purity (method not given)” value in data set [1] is recorded as greater than 99%. Consider Lys(hArg)-Dab(Ahx-DOTA)-Pro-Arg, for which, in data set [2], the “final purity (method not given)” value is listed as greater than 95% and the isolated yield came to 27%. [dR][dP][dP][dL][dW][dT][dA][dK](DOTA): the “final purity (method not given)” value in data set [1] was greater than 99%. Turning to DOTA-Ahx-A7R, in data set [2], the “final purity (method not given)” value was greater than 98% and the isolated yield was found to be 37%.
